1 molecule from patent US20140193431A1 (KOREA RESEARCH INSTITUTE OF BIOSCIENCE AND BIOTECHNOLOGY, published 2014) can be followed below.

Amino acid sequences for entries named in this document (tags omitted). Residues count along the entry.
UniProt P08581, residues 25-932: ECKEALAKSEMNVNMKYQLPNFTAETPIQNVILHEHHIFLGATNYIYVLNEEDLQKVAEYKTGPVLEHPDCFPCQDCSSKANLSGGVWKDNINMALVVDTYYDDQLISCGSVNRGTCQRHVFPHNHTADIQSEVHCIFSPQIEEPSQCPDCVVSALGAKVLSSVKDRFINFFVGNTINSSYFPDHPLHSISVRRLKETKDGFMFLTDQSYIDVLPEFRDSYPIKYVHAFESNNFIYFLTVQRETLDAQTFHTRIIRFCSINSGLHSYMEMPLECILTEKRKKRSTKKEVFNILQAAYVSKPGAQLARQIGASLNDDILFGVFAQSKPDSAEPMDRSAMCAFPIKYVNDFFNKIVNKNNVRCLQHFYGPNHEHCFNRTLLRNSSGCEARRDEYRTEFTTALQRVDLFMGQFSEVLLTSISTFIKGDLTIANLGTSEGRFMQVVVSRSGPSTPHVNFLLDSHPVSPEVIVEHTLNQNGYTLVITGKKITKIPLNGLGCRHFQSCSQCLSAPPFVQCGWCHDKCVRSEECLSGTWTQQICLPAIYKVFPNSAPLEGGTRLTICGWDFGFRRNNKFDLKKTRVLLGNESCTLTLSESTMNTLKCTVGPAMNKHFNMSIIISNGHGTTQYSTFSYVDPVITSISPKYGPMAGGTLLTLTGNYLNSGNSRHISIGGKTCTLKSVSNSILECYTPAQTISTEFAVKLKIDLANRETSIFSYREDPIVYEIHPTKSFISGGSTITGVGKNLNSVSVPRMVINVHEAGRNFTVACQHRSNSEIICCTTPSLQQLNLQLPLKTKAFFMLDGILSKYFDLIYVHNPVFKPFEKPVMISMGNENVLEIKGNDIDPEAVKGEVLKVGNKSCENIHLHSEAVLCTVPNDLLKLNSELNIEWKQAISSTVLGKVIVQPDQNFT

These are yes or no findings as the source states them, for the method shown. Some results given as binding are weak or reduced against the parent protein; the word gives no strength.

The target in this experiment is c-Met (extracellular domain)-Fc (human) (UniProt P08581). The experiment is described as follows: phage display selection on c-Met-Fc.

B1: B7 scFv-phage clone (scFv, V domains shown)
VH: QVQLQEWGAGLLKPSETLSLTCAVSGGSLSGHYWSWVRLPPGKGLEWIGEISHSGNTNYNSSLKSRASISIDTSKNEYSLNLKSVTAVDTAVYYCARFYGDYPSSYGMDVWGQGTTVTVSS
VL: QSALTQPASVSGSPGQSITISCTGTISDIGTYDFVSWYQHKPGKAPKLLIFDVNNRPSGVSSRFSGSKSDNTASLSISGFQAEDEADYYCSSYTDNRGLVLFGGGTKLTVLR
As to B1, the binding entry was “binds”.
